System: P-gp
Test: MDCK bidirectional permeability assay
Conditions: dog; for recovery: with verapamil 100 µM on the A and B sides, + verapamil 100 μM

With `CC(C)NCC(O)COc1ccc(CC(N)=O)cc1` (stereo not drawn) [Atenolol] the Papp B→A at 10 µM was 0.64 ×10⁻⁶ cm/s, the recovery (A→B) was 113% and the recovery (B→A) was 106%.
